The shares of active, inactive and inconclusive entries below differ from those in the screen. Where the call is inconclusive, the potency comes from a doubtful curve fit. Calls of active or inactive are those of the source. The call rests on the fitted dose curve; in most records, active means well fitted inhibition curve with a large enough effect; inconclusive means small, poorly fitted or top-dose-only effect; inactive means no such curve, though single readings can be large or run the other way.
Each compound was assayed against Isocitrate dehydrogenase [NADP] cytoplasmic (Homo sapiens) (UniProt O75874) (assay: qHTS for Inhibitors of mutant isocitrate dehydrogenase 1 (IDH1): Confirmation of Cherrypicks). Conditions: IDH1 R132H enzyme, NADPH diaphorase/resazurin fluorescence; series mostly up to 76.6 µM; activity change, negative = inhibition: at the top concentration.
Outline: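 IDH1 R132H 5.2 nM with 0.008 mM NADPH and 1 mM alpha-ketoglutarate, Tris pH 7.5, 80 min at room temperature; residual NADPH by diaphorase/resazurin resorufin fluorescence. Compounds 76 microM to 0.15 uM; %Activity versus 0x and 1x enzyme, concentration-response fits.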
Further: nearly all actives have a fitted effect of over 50% in size.
Potency means the concentration at half of the fitted maximal effect.
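Wherever activity change, negative = inhibition is given: 0% = full 1x enzyme control and full inhibition = no-enzyme wells.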

Sequences of proteins named here, by UniProt entry; tags and fusion partners are left off.
UniProt O75874, whole entry R132H, stated change not applied: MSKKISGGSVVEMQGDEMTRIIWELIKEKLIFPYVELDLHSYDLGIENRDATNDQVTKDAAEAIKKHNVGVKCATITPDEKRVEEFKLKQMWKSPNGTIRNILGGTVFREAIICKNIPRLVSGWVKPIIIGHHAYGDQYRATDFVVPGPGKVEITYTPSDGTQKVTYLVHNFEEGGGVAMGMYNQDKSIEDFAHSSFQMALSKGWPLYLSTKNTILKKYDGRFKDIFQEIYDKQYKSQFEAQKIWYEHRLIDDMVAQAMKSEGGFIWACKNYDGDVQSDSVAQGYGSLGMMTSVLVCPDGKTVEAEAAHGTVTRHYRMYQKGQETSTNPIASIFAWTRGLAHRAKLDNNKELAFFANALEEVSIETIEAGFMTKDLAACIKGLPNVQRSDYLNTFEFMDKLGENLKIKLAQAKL

**Q.** Which Potency does the source give for `CC(C)CNc1nnnc2c1sc1nc(N3CCOCC3)c3c(c12)CC(C)(C)SC3` here?
**A.** inconclusive: 15.8 µM [inhibitor, full curve, poor fit]

**Q.** With `CCOc1ccccc1N(C(=O)c1snc(C(N)=O)c1N)C(C(=O)NC1CCCC1)c1cccs1` (stereo unspecified) as the compound, how does the Potency read?
**A.** inconclusive: 28.2 µM [inhibitor, partial curve]

**Q.** For `COc1ccc(CN(CCC(c2ccc(F)cc2)C2CCOC(C)(C)C2)C(=O)c2ccco2)cc1` (stereo unspecified), which Potency is on record?
**A.** inconclusive: 22.4 µM [inhibitor, full curve]

**Q.** `O=C(NC1CCCCC1)C(c1cccs1)N(C(=O)c1ccccn1)c1ccccc1` (stereo unspecified) was tested. Which Potency did it give?
**A.** inconclusive: 39.8 µM [inhibitor, partial curve]

**Q.** For `CCOC(=O)N1CCN(Cc2nc(N)nc(Nc3ccc(Oc4ccccc4)cc3)n2)CC1`, which Potency is on record?
**A.** inconclusive: 44.7 µM [inhibitor, partial curve]

**Q.** `CCc1ccc(OCCn2c(C3CC(=O)N(Cc4ccc(F)cc4)C3)nc3ccccc32)cc1` (stereo unspecified) was tested. Which Potency did it give?
**A.** inconclusive: 11.2 µM [inhibitor, full curve]

**Q.** `O=C(NCc1ccco1)C(c1cccs1)N(C(=O)Cc1cccs1)c1ccccc1` (stereo unspecified) was tested. Which Potency did it give?
**A.** inconclusive: 15.8 µM [inhibitor, full curve]

**Q.** With `CCc1ccc(CNC(=O)CN2C(=O)c3cccnc3Oc3ccc(Cl)cc32)cc1` as the compound, how does the “activity change, negative = inhibition” value read?
**A.** inactive: -11.2%

**Q.** With `COc1cccc(Nc2nc3c(S(=O)(=O)c4cc(C)ccc4C)nnn3c3ccsc23)c1` as the compound, how does the Potency read?
**A.** inconclusive: 7.94 µM [inhibitor, full curve]

**Q.** `O=C(CN1C(=O)COc2ccc(S(=O)(=O)N3CCCCCC3)cc21)Nc1cccc(Cl)c1` was tested. Which Potency did it give?
**A.** inconclusive: 22.4 µM [inhibitor, full curve]

**Q.** With `CCc1nc(SCC(=O)N2CC(=O)Nc3ccccc32)c2c(C)c(C)sc2n1` as the compound, how does the Potency read?
**A.** active: 31.6 µM

**Q.** With `COc1cc2c(-c3ccc4cc[nH]c4c3)c(-c3ccsc3)oc(=O)c2cc1OC` as the compound, how does the Potency read?
**A.** active: 11.2 µM

**Q.** `CCOC(=O)c1ccc(N2C(=O)c3n[nH]c(-c4ccco4)c3C2c2ccc(OC)cc2OC)cc1` (stereo unspecified) was tested. Which Potency did it give?
**A.** inconclusive: 14.1 µM [inhibitor, full curve]

**Q.** For `Cc1ccc(C(C(=O)NC2CCCC2)N(Cc2ccc(F)cc2)C(=O)c2snc(C(N)=O)c2N)o1` (stereo unspecified), which Potency is on record?
**A.** inconclusive: 28.2 µM [inhibitor, full curve]

**Q.** `O=S(=O)(c1ccc(NC(=S)N/N=C/c2cccc(Oc3ccccc3)c2)cc1)N1CCOCC1` was tested. Which Potency did it give?
**A.** inconclusive: 1.78 µM [inhibitor, full curve]

**Q.** Which Potency does the source give for `COc1ccccc1N(C(=O)c1snc(C(N)=O)c1N)C(C(=O)NC1CCCCC1)c1cccc(OC)c1OC` (stereo unspecified) here?
**A.** inconclusive: 22.4 µM [inhibitor, full curve]

**Q.** Which “activity change, negative = inhibition” value does the source give for `Cc1nn(-c2ccccc2)c2nc(-c3cccs3)cc(C(=O)NN)c12` here?
**A.** inactive: -4.55%

**Q.** For `COc1cc(C2c3c(-c4ccc(C)cc4)n[nH]c3C(=O)N2c2ccc(F)cc2)ccc1O` (stereo unspecified), which Potency is on record?
**A.** active: 25.1 µM

**Q.** With `CCc1ccc(Sc2cc(C(=O)NC(C)CC)c3ccccc3n2)cc1` (stereo unspecified) as the compound, how does the Potency read?
**A.** inconclusive: 20 µM [inhibitor, partial curve]

**Q.** How did the Potency turn out when `CCOc1cc(C2c3c(-c4ccccc4O)n[nH]c3C(=O)N2CCc2ccccc2)ccc1O` (stereo unspecified) was run?
**A.** inconclusive: 28.2 µM [inhibitor, partial curve]

**Q.** For `COc1ccc(C2c3c(n(C)c4ccccc34)C(=O)N2CC(=O)Nc2c(C)cc(C)cc2C)cc1` (stereo unspecified), which Potency is on record?
**A.** inconclusive: 39.8 µM [inhibitor, partial curve]

**Q.** `COc1ccccc1-c1noc(CSc2nnc(Cc3ccccc3)n2-c2ccc(C)c(C)c2)n1` was tested. Which Potency did it give?
**A.** inconclusive: 31.6 µM [inhibitor, partial curve]

**Q.** With `COC(=O)c1c(NC(=O)COC(=O)c2ccc(O)cc2)sc2c1CCCCC2` as the compound, how does the “activity change, negative = inhibition” value read?
**A.** inactive: -27.4%

**Q.** Which Potency does the source give for `CC(C)c1ccc(NC(=O)C(c2ccccc2)N(Cc2ccco2)C(=O)CC2NC(=O)NC2=O)cc1` (stereo unspecified) here?
**A.** inconclusive: 39.8 µM [inhibitor, partial curve]

**Q.** Which Potency does the source give for `CCOC(=O)c1ccc(N2C(=O)c3n[nH]c(-c4ccco4)c3C2c2cccc(OC)c2)cc1` (stereo unspecified) here?
**A.** inconclusive: 11.2 µM [inhibitor, full curve]

**Q.** With `CC(CCc1ccccc1)NC(=O)COC(=O)c1ccc(S(C)(=O)=O)c([N+](=O)[O-])c1` (stereo unspecified) as the compound, how does the Potency read?
**A.** inconclusive: 50.1 µM [inhibitor, single point]

**Q.** Which Potency does the source give for `COc1ccc(-c2coc3cc(OC(C)=O)ccc3c2=S)cc1` here?
**A.** inconclusive: 50.1 µM [inhibitor, single point]

**Q.** With `Cc1ccc(C)c(S(=O)(=O)c2nnn3c2nc(Nc2ccc(F)c(Cl)c2)c2sccc23)c1` as the compound, how does the Potency read?
**A.** inconclusive: 7.08 µM [inhibitor, full curve]

**Q.** How did the Potency turn out when `CCOC(=O)C1=C(C)OC2(O)c3ccccc3C(=O)C12O` (stereo unspecified) was run?
**A.** inconclusive: 50.1 µM [inhibitor, single point]

**Q.** `COC(=O)C1=CC(C(=O)c2cccs2)=NN(c2ccc(OC)cc2)C1C(=O)OC` (stereo unspecified) was tested. Which “activity change, negative = inhibition” value did it give?
**A.** inactive: -3.63%

**Q.** How did the Potency turn out when `CCOC(=O)c1ccc(N2C(=O)c3n[nH]c(-c4ccco4)c3C2c2cccc(O)c2)cc1` (stereo unspecified) was run?
**A.** active: 35.5 µM

Source: PubChem BioAssay AID624002 (National Center for Advancing Translational Sciences (NCATS), 2012)
